Laboratory results reported in article PMC7819943, “Rice protein-binding microarrays: a tool to detect cis-acting elements near promoter regions in rice”.
The list shows a part of the results.

Chains of the proteins cited; added tags and fusions are not shown.
UniProt Q0JBA9, entry or part of it: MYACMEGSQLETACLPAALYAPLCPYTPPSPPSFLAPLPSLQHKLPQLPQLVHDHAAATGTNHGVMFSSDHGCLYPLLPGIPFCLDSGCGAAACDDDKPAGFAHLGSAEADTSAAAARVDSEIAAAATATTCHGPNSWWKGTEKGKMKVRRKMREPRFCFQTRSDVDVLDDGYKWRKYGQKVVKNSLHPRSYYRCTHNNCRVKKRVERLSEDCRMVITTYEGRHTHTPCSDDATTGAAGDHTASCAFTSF

These sequences were tested against OsWRKY34 (Oryza sativa, UniProt Q0JBA9 1-250) (assay: protein-binding microarray (RPBM); PBS, 2% BSA, 51.3 ng/ul salmon testes DNA, 50 uM zinc acetate, 200 nM TF, 25 C, 1 h; high values mean tight binding). Settings: protein: recombinant; tags: N-terminal polyhistidine and DsRed monomer fusion (pET32a); label: CyDye5-dUTP incorporated in the synthesized complementary strand; 3' TTTTT single-stranded linker to array surface; dsDNA, one strand shown.
In short: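 Binding signal is reported as fluorescence intensity per feature (arbitrary units) from an Axon 4000B scanner. Incubation used 200 nM of each Ni–NTA-purified, N-terminally polyhistidine- and DsRed-fused transcription factor from E. coli BL21-CodonPlus on a double-stranded custom Agilent array for 1 h at 25 °C, with 50 µM zinc acetate in the buffer, followed by washing.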

Going from “GTTGGAGCAGGAGCAGCTCTCGTCCTCCCTACCGCCAGCACGGAGTCACCTAGTGCAG” to “TTGTTCTTCTCGCGTCCAAGCGTGTGTGTGTTGCAGGTTTCGGAGTCACCTAGTGCAG”, the binding signal rises from 8540 fluorescence intensity (a.u.) to 8850 fluorescence intensity (a.u.).

Going from “CGCCGCCGCCGCTTCCGCTCTCCTCTCCATCTCTCCCGCCCGGAGTCACCTAGTGCAG” to “CTCCCGGCGCCGCCCGTCAACCGCTCCGTCCTCGGCCTTTCGGAGTCACCTAGTGCAG”, the binding signal falls from 9340 fluorescence intensity (a.u.) to 8660 fluorescence intensity (a.u.).

Going from “TGGCCTTATATGTTGCTTGCCCTGATTCAAAAGTGGGCTACGGAGTCACCTAGTGCAG” to “GGCCGGAGGGGAAGGGGCGGCCAGCGGTCTGCGATGGTGACGGAGTCACCTAGTGCAG”, the binding signal rises from 8460 fluorescence intensity (a.u.) to 9360 fluorescence intensity (a.u.).

Compared with “CGGAAGCTTCTACTACTCGCATTCGATTCTTCTTCCATTCCGGAGTCACCTAGTGCAG”, “AACGACCCTGACTCAATTCAAGCGCATATCAAATGCACAACGGAGTCACCTAGTGCAG” is lower in binding signal: 10700 fluorescence intensity (a.u.) for the first, 8360 fluorescence intensity (a.u.) for the second.

Compared with “TCTCTCTCTCTCTCTCTCTCTTCTGACTTAGCTTTGTCAACGGAGTCACCTAGTGCAG”, “ATGAATTCATTCCTATTTGATGTTTGTGATTTGGATCCCACGGAGTCACCTAGTGCAG” is lower in binding signal: 10700 fluorescence intensity (a.u.) for the first, 9270 fluorescence intensity (a.u.) for the second.

Compared with “CACATGCACTCCACACTTACTCCCTCAGTACTAAAAAAACCGGAGTCACCTAGTGCAG”, “GTTTACTCCAAGATTCACATTTGACTTTCTTATGCCATAGCGGAGTCACCTAGTGCAG” is higher in binding signal: 8210 fluorescence intensity (a.u.) for the first, 9170 fluorescence intensity (a.u.) for the second.

Going from “ACCCAAACTATATAGTTTAGCTGCAAACTTCAGTCTTTTTCGGAGTCACCTAGTGCAG” to “TGGCGTGGTCTCGTCTCTTCGTCTTCGGGTGTGCTCACCGCGGAGTCACCTAGTGCAG”, the binding signal rises from 8560 fluorescence intensity (a.u.) to 9650 fluorescence intensity (a.u.).

Going from “GCGCAACCTCGTCTCCGCCCCACTCGCCGAAAATATAAATCGGAGTCACCTAGTGCAG” to “CCCCGTTTTATTATTGCCGAATCCATGTTTCGACATAAACCGGAGTCACCTAGTGCAG”, the binding signal falls from 9970 fluorescence intensity (a.u.) to 9950 fluorescence intensity (a.u.).

Compared with “CTTTTTTTTCTAAACTCTCATCTCACTTCGTCAGTTCGTCCGGAGTCACCTAGTGCAG”, “ACTCTCTCCATCCCATTTTGAGTGCAACCATGAGTTTCCGCGGAGTCACCTAGTGCAG” is lower in binding signal: 8740 fluorescence intensity (a.u.) for the first, 8640 fluorescence intensity (a.u.) for the second.

Going from “CAGCAGTACCTTGTTATGCCTATATACGTTCTAAAGTATACGGAGTCACCTAGTGCAG” to “ACCATTCTCATGTAGACGTTCTCTTTTCTTTTGCTAGTCACGGAGTCACCTAGTGCAG”, the binding signal rises from 8460 fluorescence intensity (a.u.) to 9600 fluorescence intensity (a.u.).

Going from “CACTTGTTTTCACTATGTCCACACGACTTTTTTCTTTAGACGGAGTCACCTAGTGCAG” to “AGAGCTGCTAATTTTTTTCTTTCCTTTTGTGTTGTTTCCCCGGAGTCACCTAGTGCAG”, the binding signal falls from 9210 fluorescence intensity (a.u.) to 8540 fluorescence intensity (a.u.).

First: ACTGTTCAGGATGATCATCCCTTATGCTGCTTCTGTTGGTCGGAGTCACCTAGTGCAG
Second: CTCCTCGCGCCCTCGCTGCGTCGCCGCCGTTGCCCGCCCTCGGAGTCACCTAGTGCAG
The binding signal of the first is lower: 9340 fluorescence intensity (a.u.) for the first, 9960 fluorescence intensity (a.u.) for the second.

Going from “CTTCGCGCTGGTCTTCTCCACCGCCGCCGCTATCACTGGACGGAGTCACCTAGTGCAG” to “TGGCACTGTAGTCCTTCCTCAGCTCCACATACCACCATCTCGGAGTCACCTAGTGCAG”, the binding signal rises from 8420 fluorescence intensity (a.u.) to 10500 fluorescence intensity (a.u.).

Going from “CCTGACATTCCATTGTGTTTCTTACGTATAACCCCTCGTACGGAGTCACCTAGTGCAG” to “GGTGGTTGGTAGCTCGGCGGCGGCGGGATCTTCTTCTTGCCGGAGTCACCTAGTGCAG”, the binding signal rises from 10200 fluorescence intensity (a.u.) to 11300 fluorescence intensity (a.u.).

Compared with “CTAGAAGACACAGAAGCCCATCTTGCCATCCATAGTCATCCGGAGTCACCTAGTGCAG”, “GTGATCCCTTTCTTCTCATGGGCTCATACCATCAATCACACGGAGTCACCTAGTGCAG” is lower in binding signal: 8080 fluorescence intensity (a.u.) for the first, 8040 fluorescence intensity (a.u.) for the second.

Compared with “CCTATATACCCACCTCTCTCATCTTTCAATGTTTATTGACCGGAGTCACCTAGTGCAG”, “TCTTTCATTTCTCGTGGGAAGAGCTCTTTTTTCTTTCATTCGGAGTCACCTAGTGCAG” is lower in binding signal: 9420 fluorescence intensity (a.u.) for the first, 8280 fluorescence intensity (a.u.) for the second.

Compared with “GGTGATCACTAGGCTGTCAATGGGGTGGTAGGGTGGCATGCGGAGTCACCTAGTGCAG”, “ATTGCGCGTGGCGGAGGGGAAGAGGGAGGGGAGGGTGGCGCGGAGTCACCTAGTGCAG” is higher in binding signal: 10400 fluorescence intensity (a.u.) for the first, 16100 fluorescence intensity (a.u.) for the second.

Going from “CTCTACTATCGATCTTTTTTCCACGTCGGTCGCGGCTTTTCGGAGTCACCTAGTGCAG” to “GTACTTCTTCGCTCCGTCGTTCATAATATTCGTTTTTTCACGGAGTCACCTAGTGCAG”, the binding signal rises from 9580 fluorescence intensity (a.u.) to 10100 fluorescence intensity (a.u.).

First: CCGCTGCCTGCTTTTGGATATGGTCTCTATCATCCACTTCCGGAGTCACCTAGTGCAG
Second: GCCTTACATTTCCTTTCTTTCGTCTGCAATTTTTGGGACTCGGAGTCACCTAGTGCAG
The binding signal of the first is lower: 11000 fluorescence intensity (a.u.) for the first, 11900 fluorescence intensity (a.u.) for the second.

Going from “CTCCCTGCGTGTGGTTCAGGTGCTGAAGGTGATATTCAGACGGAGTCACCTAGTGCAG” to “AAAGCCTCCGCATTGACTCCTCGGCCCCTATTGCGTCACTCGGAGTCACCTAGTGCAG”, the binding signal falls from 9190 fluorescence intensity (a.u.) to 8400 fluorescence intensity (a.u.).

Compared with “CATTTACATTTGATCTGTTCCATCATTGACAACTGCTAATCGGAGTCACCTAGTGCAG”, “GTTGGCATGTATCCACATGTTGGTCACTGCTACGAGCATTCGGAGTCACCTAGTGCAG” is higher in binding signal: 8030 fluorescence intensity (a.u.) for the first, 8770 fluorescence intensity (a.u.) for the second.
